Results deposited as PubChem BioAssay AID1508588 (Peter MacCallum Cancer Centre, 2020).

- Assay: 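Genome-wide search for knock-downs that heighten vemurafenib action in melanoma cells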 (primary screen)
- System: human WM266.4 melanoma cells (BRAF V600 mutant)
- Knock-down reagent: siRNA pool against human genes, 40 nM
- Duration: 96 h from transfection to read-out
- Conditions: vemurafenib 300 nM (about IC25), added 48 h after transfection, for 48 h; comparison arm got DMSO vehicle only
- Read-out: 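Cell gain (DAPI nuclei at end minus before drug, mean of two replicates) and medium lactate by absorbance per cell, both as ratio to non-targeting siRNA, also grouped into fold-change classes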
- Direction: cell gain with vemurafenib: higher = more cell gain than with non-targeting siRNA; lactate per cell with vemurafenib: higher = more lactate made per cell
- Rule for the call: 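a knock-down counts as enhancing when its fold-change classes with vehicle and with vemurafenib, taken together, show a stronger drug effect on cell gain or lactate per cell; exact class pairs not stated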
- Meaning of the calls: active = enhances vemurafenib effect; inactive = no enhancement seen
The whole screen tested about 18,000 reagents; this is a random part of them. 790 of all reagents (4.4%) were called active. 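Calls rest on a combination of fold-change classes in drug and vehicle arms, not all shown here.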 A number with no mark means an inactive call. Reagent sequences are not shown.

target gene	cell gain with vemurafenib	lactate per cell with vemurafenib
RASD2	1.03	1.17
GPATCH8	0.64	1.45
DIXDC1	0.17	1.4
C22orf31	1.04	1.14
PLEKHH1	0.2	1.17
KCTD9	0.62	0.68
DAGLB	0.96	0.7
ADSL	1.2	1.11
HOXC6	0.41	1
ABCB1	0.12	0.47
SAMTOR	0.34	0.8
ANGPTL3	0.9	0.88
CRYBB1	0.38	0.92
TMEM218	0.54	1.15
SGSM3	0.77	0.44
SETD1A	0.92	0.68
ATP5F1E	0.51	1.15
ADGRG3	0.61	0.95
TRIM58	0.59	0.57
EHD4	0.95	0.48
KIT	0.55	0.88
CPTP	0.69	0.7
BEST3	0.91	1.21
VSTM1	0.21	0.84
UBALD2	0.43	1.54
MGAT2	0.31	0.84
RPS16	-0.07	2.53
MID1IP1	0.26	1.32
PELI1	0.25	0.74
FEZF2	0.83 (active)	0.12
FAM133B	0.62	1.07
TTC22	0.27	2.41
REG1B	0.41	1.19
FERRY3	0.82	0.66
GPRC5B	0.28	2.9
SAT1	0.89	0.77
SIN3A	0.48	1.73
ZNF185	1.08	0.4
GDF5	0.33	2.25
SKIC8	0.1	1.46
KLRG1	0.68	1.24
HNRNPCL1	0.39	0.85
RPL39L	0.15	0.72
VPS4A	0.18 (active)	1.66
CETN3	0.26	0.72
LOC728919 (retired record)	0.35	1.73
CNNM3	0.4	1.57
FAM151B	0.05	4.67
OR2M7	0.32	1.1
P2RX1	0.36	0.72
TESMIN	1.11	0.52
KRT2	0.39	1.01
NSMCE4A	0.8	0.7
MAB21L1	0.14	2.09

Next part, starting with the last 4 of the part before.
target gene	cell gain with vemurafenib	lactate per cell with vemurafenib
TESMIN	1.11	0.52
KRT2	0.39	1.01
NSMCE4A	0.8	0.7
MAB21L1	0.14	2.09
LGR4	0.36 (active)	0.47
AMZ1	0.48	1.3
PRIMPOL	0.27	0.9
PFN4	0.76	0.65
SOX9	0.37	1.92
AKAP9	0.57	0.86
EFHD2	0.23	0.77
CCNT1	0.9	0.8
ARMC6	0.39	1.7
FCGBP	0.72 (active)	0.52
DNAAF2	0.91	1.19
PRKCD	0.18	1.59
IGFBP5	0.72	0.99
HS6ST3	0.83	0.57
TSPY3	0.63	1.83
ZNF461	0.31	1.23
TTLL13	1.04	0.84
MARCO	0.46	1.04
NSMCE2	0.25	1.37
SLC75A1	0.41 (active)	0.42
ZFX	0.61	1
TMEM18	1.22	0.76
GNGT2	0.28	0.2
ALDOC	0.27	1.52
GLRB	0.6	0.54
UBXN1	0.77	0.96
RAB3A	0.56	1.04
ALKAL2	0.67	0.5
TBC1D22B	0.64	1.01
KITLG	0.89	0.55
